For assay [1], the target named is ROR1 on cells (UniProt Q01973). Kind of assay: flow cytometry, cellular binding to ROR1, before and after humanization.
For assay [2], the target named is ROR1 on cells (UniProt Q01973). Kind of assay: flow cytometry (gMFI) on A549 cells.
The target in assay [3] is ROR1 antigen (UniProt Q01973). Kind of assay: epitope binning by Octet (BLI).
Assay [4] addresses ROR1 antigen (UniProt Q01973). Kind of assay: Octet, ROR1-His (10 ug/ml) on HIS1K sensor, antibodies at 10 ug/mL.
A further assay addresses 4-1BB on cells (human) (UniProt Q07011). Kind of assay: flow cytometry (gMFI) on HEK293-h4-1BB cells.

Sequences of proteins named here, by UniProt entry; tags and fusion partners are left off. A change or cut given only in a name is not applied to a line headed by its entry. Residues count along the entry.
UniProt Q01973: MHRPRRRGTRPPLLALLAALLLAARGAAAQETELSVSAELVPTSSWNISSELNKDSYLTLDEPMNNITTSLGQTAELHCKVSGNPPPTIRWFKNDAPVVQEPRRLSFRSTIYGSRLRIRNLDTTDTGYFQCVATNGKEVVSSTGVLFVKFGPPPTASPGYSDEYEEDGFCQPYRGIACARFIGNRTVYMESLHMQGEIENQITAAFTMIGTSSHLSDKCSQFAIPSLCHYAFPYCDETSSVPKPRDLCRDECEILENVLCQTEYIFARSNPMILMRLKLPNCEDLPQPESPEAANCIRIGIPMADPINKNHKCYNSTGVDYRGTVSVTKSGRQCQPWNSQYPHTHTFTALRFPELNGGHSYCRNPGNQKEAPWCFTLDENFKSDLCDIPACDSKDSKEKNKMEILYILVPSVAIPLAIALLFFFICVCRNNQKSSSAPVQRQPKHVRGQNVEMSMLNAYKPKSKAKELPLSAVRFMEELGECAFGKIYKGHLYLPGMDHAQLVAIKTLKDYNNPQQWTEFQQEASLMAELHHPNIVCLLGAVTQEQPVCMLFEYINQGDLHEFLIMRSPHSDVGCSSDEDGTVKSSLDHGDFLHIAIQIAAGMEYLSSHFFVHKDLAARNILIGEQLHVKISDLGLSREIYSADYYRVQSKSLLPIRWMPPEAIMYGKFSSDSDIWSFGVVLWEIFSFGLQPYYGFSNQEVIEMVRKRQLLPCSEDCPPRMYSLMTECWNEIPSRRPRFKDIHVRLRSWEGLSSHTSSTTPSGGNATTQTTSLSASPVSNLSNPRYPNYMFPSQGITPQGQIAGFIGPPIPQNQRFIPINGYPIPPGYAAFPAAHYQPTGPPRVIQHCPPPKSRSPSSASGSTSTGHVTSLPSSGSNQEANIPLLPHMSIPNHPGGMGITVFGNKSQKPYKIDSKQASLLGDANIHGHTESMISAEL
ROR1 on cells: residues 30-937 of Q01973
ROR1 antigen: residues 30-406 of Q01973
UniProt Q07011: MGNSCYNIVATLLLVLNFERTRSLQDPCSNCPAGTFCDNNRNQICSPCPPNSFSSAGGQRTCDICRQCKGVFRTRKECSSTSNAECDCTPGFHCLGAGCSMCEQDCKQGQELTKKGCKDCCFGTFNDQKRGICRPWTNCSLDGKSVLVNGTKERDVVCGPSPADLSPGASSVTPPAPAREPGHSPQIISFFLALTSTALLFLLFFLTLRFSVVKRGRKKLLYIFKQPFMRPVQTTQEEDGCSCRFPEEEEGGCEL

No constants are given. Whether binding was seen depends on the method and setting. Some binding calls cover weakened binding; strength is not graded here.

B1: humanized 3C5 anti-ROR1 mAb (antibody, V domains shown)
VH: EVQLVESGGGLVKPGGSLRLSCAASGFTFSSYAMSWVRQAPGKRLEWVSSISSGGTTYYPDTVKGRFTISRDNAKNSLYLQMNSLRAEDTAVYYCARDALYYGSSLYYAMDYWGQGTLVTVSS
VL: DIQMTQSPSSLSASVGDRVTITCRASQDIYSYLSWFQQKPGKAPKTLIYRANRLVDAVPSRFSGSGSGQDYTLTISSLQPEDFATYYCLQYDEFPYTFGQGTKLEIK
For B1, the binding entry with ROR1 on cells [1] and with ROR1 on cells [2] was “binds” throughout.

B2: 8F2 (antibody, V domains shown)
VH: EVQLQQSGPELVKPGASVKMSCKASGYTFTTYVMHWVKQKPGQGLEWIGYINPYNGGIRYNEKFKGKATLTSDKSSSTAYMELSSLTSEDSAVYYCARRERGVYYGMDEWGQGTSVTVSS
VL: DVVMTQTPLTLSVTIGQPASISCKSSQSLLHSNGKTYLNWLLQRPGQSPNLLIYLVSKLESGVPDRFSGSGSGTDFTLKISRVEAEDLGVYYCLQATYFPYTFGSGTKLEIK
Consider B2, for which the binding result with ROR1 antigen [3] and with ROR1 antigen [4] was “binds” in each case.

B3: 3C5 (antibody, V domains shown)
VH: EVKLVESGGGLVKPGGSLKLSCAASGFTFSSYAMSWVRQTPEKRLEWVSSISSGGTTYYPDTVKGRFTISRDNARNILYLQMSSLRSEDTAMYYCARDSLYYGSSLYYAMDYWGQGTSVTVSS
VL: DIKMTQSPSSMYASLGERVSITCRASQDIYSYLSWFQQKPGKSPKTLIYRANRLVDGVPSRFSGSGSGQDYSLTISSLEYEDMGIYYCLQYDEFPYTFGGGTKLEIK
Consider B3, for which the binding entry with ROR1 antigen [3] and with ROR1 antigen [4] was “binds” throughout.

B4: 4-1BB VHH (VHH)
VHH: QVQLQESGGGLVQPGGSLRLSCAASGYTYSSNCMGWFRQAPGKGLEGVAVICTGGGSPSYADSVKGRFTISRDNAKNTLYLQMNSLRAEDTAVYYCAADLLRAGTPLSSYEFNYWGQGTLVTVSS
In the case of B4, in the assay with 4-1BB on cells (human), the binding entry is “binds”.

Source of the values: US20260078196A1.
